The record followed here is PMC10185773, “Interactions of the protein tyrosine phosphatase PTPN3 with viral and cellular partners through its PDZ domain: insights into structural determinants and phosphatase activity” (Frontiers in Molecular Biosciences, 2023).

Protein sequences, listed by entry. Tags and fused reporters are not part of them. Lines headed by an entry give the natural chain unless they say otherwise; changes in a name come on top.
UniProt P26045: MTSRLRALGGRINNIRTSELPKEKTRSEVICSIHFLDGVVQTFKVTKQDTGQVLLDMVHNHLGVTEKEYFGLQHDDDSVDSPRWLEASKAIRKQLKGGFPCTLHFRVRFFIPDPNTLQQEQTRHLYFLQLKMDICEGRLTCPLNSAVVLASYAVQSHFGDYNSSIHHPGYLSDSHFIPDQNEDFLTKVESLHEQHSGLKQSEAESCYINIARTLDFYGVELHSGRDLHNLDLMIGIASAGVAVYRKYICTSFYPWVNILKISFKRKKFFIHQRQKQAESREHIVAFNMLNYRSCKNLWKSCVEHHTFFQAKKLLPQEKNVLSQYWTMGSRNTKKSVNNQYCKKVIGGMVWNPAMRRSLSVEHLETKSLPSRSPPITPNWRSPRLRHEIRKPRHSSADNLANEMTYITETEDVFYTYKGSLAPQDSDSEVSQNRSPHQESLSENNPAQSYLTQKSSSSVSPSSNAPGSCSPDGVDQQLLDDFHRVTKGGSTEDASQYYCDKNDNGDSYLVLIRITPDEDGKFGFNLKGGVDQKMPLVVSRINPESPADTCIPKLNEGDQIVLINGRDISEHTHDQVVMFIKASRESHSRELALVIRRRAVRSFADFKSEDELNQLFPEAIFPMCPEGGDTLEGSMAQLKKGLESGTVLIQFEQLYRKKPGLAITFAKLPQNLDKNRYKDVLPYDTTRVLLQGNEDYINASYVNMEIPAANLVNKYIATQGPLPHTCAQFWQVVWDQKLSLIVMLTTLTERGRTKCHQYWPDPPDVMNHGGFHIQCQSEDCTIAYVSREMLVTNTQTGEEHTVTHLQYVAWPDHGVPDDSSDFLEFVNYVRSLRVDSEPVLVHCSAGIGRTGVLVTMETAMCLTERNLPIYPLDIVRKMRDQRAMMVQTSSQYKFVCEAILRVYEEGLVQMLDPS

The test addresses PTPN3 PDZ domain (PTPN3-PDZ) (human) (UniProt P26045). The experiment in a line: crystal structure; co-crystallisation, PTPN3-PDZ and peptide mixed 1:2 in 20 mM HEPES pH 8, 150 mM NaCl, 0.5 mM TCEP; sitting drop, 18°C, 20% PEG 3350; both purified.

Results are given in words; binding and its absence hold for the method and conditions named. Binding can be weak; no strength is given.

Take RQNRVDSKETEC [PBM-TACE peptide (last C-terminal 12 residues of TACE)]: the binding result is reported as “binds”.
